Measured values as given in PubChem BioAssay AID1487 (National Center for Advancing Translational Sciences (NCATS), 2009).
This is one part of the list. These are further read-outs of the screen, such as a control signal, another cell line or another target. No call is given for them. Compounds called inactive in the main read-out are mostly missing here. The note in brackets gives the kind of curve behind each potency; many fits are weak.

Experiment: qHTS Assay for Modulators of Lamin A Splicing
Details: HeLa LMNA splicing GFP/RFP minigene ratio, 48 h
Procedure, shortened: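 S3 HeLa cells stably expressing lamin A-EGFP splicing minigene plus DsRed2, 600 cells/well, 48 h compound exposure at 37C. Laser-scanning cytometry; analysed as GFP (500-530 nm)/RFP (575-640 nm) total intensity ratio; 0.5% DMSO vehicle.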

[1] = measured here: GFP splicing reporter channel
[2] = measured here: RFP viability control channel

Q: Which AC50 [1] does the source give for `Cc1ccc(S(=O)(=O)n2nccc2-c2c(-c3ccccc3)noc2C)cc1` here?
A: The AC50 was 0.0282 µM [rising, full curve].

Q: With `CC(=O)Nc1sc2c(c1C(c1ccc(F)cc1)N1CCOCC1)CCCC2` (configuration not stated) as the compound, how does the AC50 [1] read?
A: Its AC50 is 35.5 µM [rising, single point].

Q: With `COc1ccc(CCN(C)C(=O)c2ccc(S(=O)(=O)NCc3ccco3)cc2)cc1OC` as the compound, how does the AC50 [1] read?
A: Its AC50 is 5.62 µM [rising, single point].

Q: What about the AC50 [2] of the same compound?
A: Its AC50 is 3.16 µM [rising, full curve, poor fit].

Q: Which AC50 [1] does the source give for `Cc1cc2cc(CNC(=S)Nc3ccc(OC(F)F)cc3)ccc2[nH]1` here?
A: Its AC50 is 35.5 µM [rising, single point].

Q: What about the AC50 [2] of the same compound?
A: Its AC50 is 35.5 µM [rising, single point].

Q: With `CCCC1=C/C(=C/c2ccc(-c3ccccc3OC)o2)C(=O)O1` as the compound, how does the AC50 [1] read?
A: Its AC50 is 31.6 µM [rising, single point].

Q: For `COc1ccc(Cc2noc(CN(C)CC3(N4CCOCC4)CCCCC3)n2)cc1OC`, which AC50 [2] is on record?
A: The AC50 was 0.224 µM [falling, full curve, poor fit].

Q: For `Cc1cc(C(=O)CSc2nc(N)cc(N)n2)c(C)n1C1CC1`, which AC50 [2] is on record?
A: Its AC50 is 0.0251 µM [falling, full curve, poor fit].

Q: What does the source list for `C(=N\Nc1nc(N2CCCC2)nc(N2CCCC2)n1)/c1ccncc1`?
A: AC50 [1]: 6.31 µM [rising, single point]; AC50 [2]: 0.794 µM [rising, partial curve, poor fit]

Q: What does the source list for `Cc1cccc(-c2ncc(CN3CCN(CC(C)C)C(CCO)C3)cn2)c1` (configuration not stated)?
A: AC50 [1]: 0.02 µM [falling, full curve, poor fit]; AC50 [2]: 0.0631 µM [falling, full curve, poor fit]

Q: For `Cc1ccc(NC(=O)C2C(=O)N(C)c3ccccc32)cc1` (configuration not stated), which AC50 [1] is on record?
A: Its AC50 is 1.58 µM [rising, partial curve].

Q: What about the AC50 [2] of the same compound?
A: The AC50 was 0.891 µM [rising, full curve, poor fit].

Q: Which AC50 [2] does the source give for `COc1ccc2cc3cc(C(=O)NCCN4CCc5ccccc5C4)oc3nc2c1` here?
A: Its AC50 is 12.6 µM [rising, single point].

Q: With `Clc1ccccc1-c1nc(N/N=C/c2cccnc2)c2ccccc2n1` as the compound, how does the AC50 [1] read?
A: Its AC50 is 14.1 µM [falling, single point].

Q: For `Cc1cc(C)nc(NC(=O)c2ccc(Cl)cc2Cl)n1`, which AC50 [2] is on record?
A: Its AC50 is 0.00355 µM [falling, full curve, poor fit].

Q: For `Cc1ccc(-n2nc3c([n+]2[O-])CCc2c-3no[n+]2[O-])cc1`, which AC50 [1] is on record?
A: Its AC50 is 35.5 µM [rising, single point].

Q: Which results are given for `CCOC(=O)c1cccc(Nc2nc(-c3cccnc3)nc3ccccc23)c1`?
A: AC50 [1]: 14.1 µM [falling, partial curve]; AC50 [2]: 25.1 µM [falling, partial curve]

Q: Which AC50 [1] does the source give for `Cc1noc(C)c1-c1ccc2ncnc(N3CCN(C)CC3)c2c1` here?
A: Its AC50 is 3.98 µM [falling, partial curve].

Q: Which AC50 [2] does the source give for `Cc1cccc2cc3c(N)c(C(=O)N4CCc5ccccc54)sc3nc12` here?
A: The AC50 was 5.01 µM [rising, full curve, poor fit].

Q: With `CN(C)c1ccc(-c2cncnc2Nc2ccccc2)cc1` as the compound, how does the AC50 [1] read?
A: Its AC50 is 10 µM [falling, partial curve].

Q: For `CCN(CC)c1ccc(NC(=O)c2ccc(Cl)nc2)cc1`, which AC50 [1] is on record?
A: Its AC50 is 35.5 µM [rising, single point].

Q: And the AC50 [2]?
A: Its AC50 is 22.4 µM [rising, single point].

Q: Which AC50 [1] does the source give for `COC(=O)Cc1c(C(=O)OC)nnn1-c1ccc(OC)cc1` here?
A: Its AC50 is 35.5 µM [falling, single point].

Q: Which AC50 [1] does the source give for `Cc1noc(C)c1CSc1nnc(-c2cc(Cl)ccc2Cl)n1N` here?
A: Its AC50 is 11.2 µM [rising, single point].

Q: What about the AC50 [2] of the same compound?
A: The AC50 was 14.1 µM [rising, single point].

Q: Which results are given for `OCC1OC(n2cnc3c(NCc4ccco4)ncnc32)C(O)C1O` (configuration not stated)?
A: AC50 [1]: 3.98 µM [rising, full curve]; AC50 [2]: 2.51 µM [rising, full curve]

Q: With `COc1ccccc1Oc1ccc(N/C=C/C(=O)c2ccco2)cc1` as the compound, how does the AC50 [1] read?
A: Its AC50 is 0.891 µM [falling, full curve, poor fit].

Q: And the AC50 [2]?
A: The AC50 was 0.891 µM [falling, full curve, poor fit].

Q: Which AC50 [1] does the source give for `O=C(NC1C=CS(=O)(=O)C1)c1sc2ccccc2c1Cl` (configuration not stated) here?
A: The AC50 was 35.5 µM [falling, single point].

Q: Which AC50 [1] does the source give for `Cc1ccc(NC(=O)CSc2nnc(NC(=O)NC3CCCCC3)s2)cc1` here?
A: Its AC50 is 0.224 µM [falling, partial curve, poor fit].

Q: Which AC50 [1] does the source give for `CCc1cccc(N(CC(=O)NCc2ccc(F)cc2)C(=O)c2csnn2)c1` here?
A: Its AC50 is 17.8 µM [falling, partial curve, poor fit].

Q: Which AC50 [2] does the source give for `CN(C)c1ccc(C2=NOC(CN3C(=O)c4ccccc4S3(=O)=O)C2)cc1` (configuration not stated) here?
A: Its AC50 is 17.8 µM [rising, single point].

Q: With `Fc1cccc(F)c1/C=C/c1ccc2ccccc2n1` as the compound, how does the AC50 [2] read?
A: The AC50 was 0.447 µM [rising, partial curve, poor fit].

Q: What does the source list for `COc1cc2c(cc1OC)C(COc1ccccc1OC)N(C(=O)c1ccc(S(=O)(=O)N(C)C)cc1)CC2` (configuration not stated)?
A: AC50 [1]: 7.94 µM [falling, full curve, poor fit]; AC50 [2]: 0.282 µM [falling, full curve, poor fit]

Q: Which AC50 [1] does the source give for `NNC(=O)c1cccc(COc2ccccc2Br)c1` here?
A: Its AC50 is 0.126 µM [falling, full curve].

Q: What about the AC50 [2] of the same compound?
A: Its AC50 is 1.41 µM [falling, full curve].

Q: Which results are given for `CCCCCn1c(CN(C)Cc2ccccc2)nc2c1c(=O)n(C)c(=O)n2C`?
A: AC50 [1]: 12.6 µM [rising, single point]; AC50 [2]: 28.2 µM [rising, single point]

Q: With `CCC(=O)Nc1cccc(NC(=S)NC(=O)c2ccccc2)c1` as the compound, how does the AC50 [2] read?
A: Its AC50 is 11.2 µM [rising, single point].

Q: With `CN(Cc1ccco1)c1ncnc2ccc(-c3ccoc3)cc12` as the compound, how does the AC50 [1] read?
A: The AC50 was 20 µM [falling, partial curve, poor fit].

Q: And the AC50 [2]?
A: Its AC50 is 14.1 µM [falling, partial curve, poor fit].

Q: For `CCCCN(CC)C(=O)CSc1nc2ccccc2c(=O)n1Cc1ccco1`, which AC50 [2] is on record?
A: The AC50 was 10 µM [falling, partial curve].

Q: Which AC50 [2] does the source give for `Cc1ccc(N=N/C(=C\O)C(=O)c2ccncc2)cc1` here?
A: The AC50 was 15.8 µM [rising, single point].

Q: What does the source list for `CC(NC(=O)Nc1nnc(C(F)(F)F)s1)(C(F)(F)F)C(F)(F)F`?
A: AC50 [1]: 3.55 µM [rising, partial curve]; AC50 [2]: 2.51 µM [rising, full curve]

Q: With `Cc1cc(C)c(S(=O)(=O)c2c(C)cccc2C)c(OCC(C)C)n1` as the compound, how does the AC50 [2] read?
A: Its AC50 is 12.6 µM [rising, partial curve, poor fit].

Q: Which AC50 [2] does the source give for `Cc1ccc(N2C(=O)c3cccc(Oc4ccc(Cl)cc4)c3C2=O)c(C)c1` here?
A: Its AC50 is 7.08 µM [rising, full curve, poor fit].

Q: Which AC50 [1] does the source give for `CCC(CC)NC(=O)c1n[nH]c(=O)c2ccccc12` here?
A: The AC50 was 0.00398 µM [rising, full curve, poor fit].

Q: Which AC50 [1] does the source give for `Cc1cccc(OCc2nnc(SCC(=O)N3c4ccccc4Sc4ccc(Cl)cc43)o2)c1` here?
A: The AC50 was 12.6 µM [rising, single point].

Q: And the AC50 [2]?
A: Its AC50 is 17.8 µM [rising, single point].

Q: Which AC50 [1] does the source give for `C/C(=N\OC(=O)NC1CCCCC1)c1sc(-c2ccccc2)nc1C` here?
A: Its AC50 is 7.94 µM [falling, partial curve].

Q: And the AC50 [2]?
A: The AC50 was 11.2 µM [falling, partial curve].

Q: With `COc1ccc(/C=C(/C(=O)NCc2ccccc2)c2ccccc2)cc1` as the compound, how does the AC50 [2] read?
A: The AC50 was 17.8 µM [rising, partial curve, poor fit].

Q: For `O=c1cc(CN2CCc3ccccc32)c2ccc(O)cc2o1`, which AC50 [2] is on record?
A: The AC50 was 17.8 µM [rising, single point].

Q: For `COc1ccc(Nc2cc(C)c3cc(NC(=O)COc4cccc(C)c4)ccc3n2)cc1`, which AC50 [1] is on record?
A: Its AC50 is 3.98 µM [falling, single point].

Q: Which AC50 [2] does the source give for `O=C(Nc1ccc(NC(=O)c2cccs2)cn1)c1ccco1` here?
A: The AC50 was 6.31 µM [falling, partial curve, poor fit].

Q: For `Cc1cc(/C=C2/NC(=O)NC2=O)c(C)n1-c1sc2c(c1C#N)CCCC2`, which AC50 [1] is on record?
A: Its AC50 is 5.62 µM [falling, single point].

Q: What about the AC50 [2] of the same compound?
A: The AC50 was 5.62 µM [falling, single point].

Q: For `Cc1ccc(NC(=O)c2cc(NC(=O)c3ccco3)ccc2N2CCOCC2)cc1`, which AC50 [2] is on record?
A: Its AC50 is 10 µM [rising, single point].

Q: Which results are given for `C=CCNC(=S)N/N=C(\C)c1cccc(NC(C)=O)c1`?
A: AC50 [1]: 0.0251 µM [falling, full curve]; AC50 [2]: 0.02 µM [falling, full curve]

Q: What does the source list for `CCOC(=O)CC1ON(C)C(=O)N1c1ccc([N+](=O)[O-])cc1` (configuration not stated)?
A: AC50 [1]: 0.00447 µM [falling, full curve, poor fit]; AC50 [2]: 0.00501 µM [falling, full curve, poor fit]

Q: Which AC50 [2] does the source give for `CC(C)(C)n1nnnc1C(c1cccs1)N(Cc1ccc(Cl)cc1)CC1CCCO1` (configuration not stated) here?
A: The AC50 was 14.1 µM [rising, partial curve].

Q: With `CCOc1ccc(C(=O)NCC(c2ccc3c(c2)OCO3)N2CCN(C)CC2)cc1` (configuration not stated) as the compound, how does the AC50 [1] read?
A: Its AC50 is 17.8 µM [falling, partial curve, poor fit].

Q: For `Cc1nn2c(C)c(C(=O)NCc3cccc(Br)c3)cnc2c1-c1ccccc1`, which AC50 [2] is on record?
A: The AC50 was 0.0282 µM [falling, full curve, poor fit].

Q: With `O=S(=O)(c1ccc(F)cc1)N1CCN(Cc2ccccn2)CC1` as the compound, how does the AC50 [1] read?
A: Its AC50 is 0.2 µM [rising, full curve, poor fit].

Q: For `Cc1ccc(Nc2nc(CSc3nnnn3-c3ccccc3)cs2)cc1`, which AC50 [1] is on record?
A: Its AC50 is 6.31 µM [rising, partial curve].

Q: And the AC50 [2]?
A: Its AC50 is 14.1 µM [rising, partial curve].

Q: With `Cc1cccc(Cn2c(SCC(=O)Nc3ccccc3)nc3c2c(=O)[nH]c(=O)n3C)c1` as the compound, how does the AC50 [2] read?
A: The AC50 was 3.98 µM [rising, full curve, poor fit].

Q: Which AC50 [2] does the source give for `O=C(N/N=C/c1ccncc1)c1cc(Br)ccc1OCc1ccccc1` here?
A: Its AC50 is 15.8 µM [rising, single point].
